Reference: PubChem BioAssay AID686971 (National Center for Advancing Translational Sciences (NCATS), 2013)
The whole screen tested about 360,000 compounds, of which about 7,500 (2.1%) were called active. All entries are inconclusive by the source's own rule. Clear calls are listed elsewhere. The call rests on the fitted dose curve; in most records, active means well fitted cell-killing curve with a large enough effect; inconclusive means small, poorly fitted or top-dose-only effect, or effect the other way, or another doubt; inactive means no such curve, though single readings can be large or run the other way.

Test: qHTS for induction of synthetic lethality in tumor cells producing 2HG: qHTS for the HT-1080-IDH1KD cell line
Conditions: HT-1080 IDH1 knockdown viability, ATP luminescence, 48 h
Potency means the concentration at half of the fitted maximal effect.

SMILES	Potency
CC(C)(C)c1ccc(OP(C)(=O)Nc2ccc(SC(F)(F)F)cc2)cc1 (stereo unspecified)	inconclusive: 29.1 µM
O=[N+]([O-])c1ccc2c(c1)C=Nc1ccccc1O2	inconclusive: 29.1 µM
Cc1cc(C)cc(OP(C)(=O)Nc2ccc(SC(F)(F)F)cc2)c1 (stereo unspecified)	inconclusive: 29.1 µM
CCCOc1ccc(NP(C)(=O)Oc2ccc(Cl)cc2)cc1 (stereo unspecified)	inconclusive: 29.1 µM
O=[N+]([O-])c1cc([N+](=O)[O-])c(-c2cnn(-c3ccccc3)c2)c([N+](=O)[O-])c1	inconclusive: 29.1 µM
COc1ccc(OP(C)(=O)Nc2ccc(SC(F)(F)F)cc2)cc1 (stereo unspecified)	inconclusive: 29.1 µM
CCCCCOc1ccc(NP(C)(=O)Oc2ccc(Cl)cc2Cl)cc1 (stereo unspecified)	inconclusive: 29.1 µM
CC(C)c1ccc(OP(C)(=O)Nc2ccc(SC(F)(F)F)cc2)cc1 (stereo unspecified)	inconclusive: 18.4 µM
Cc1cc(-c2cccc3ccccc23)c(C)cn1.O=[N+]([O-])c1cc([N+](=O)[O-])c(O)c([N+](=O)[O-])c1	inconclusive: 20.6 µM
O=[N+]([O-])c1cc([N+](=O)[O-])c(Nc2ccccn2)c([N+](=O)[O-])c1	inconclusive: 16.4 µM
Cc1cc(C)cc(OP(C)(=O)Nc2cccc(C(F)(F)F)c2)c1 (stereo unspecified)	inconclusive: 25.9 µM
